{"source": "patent US20020182587A1", "about": "“Methods and compositions for the treatment and prevention of smooth muscle cell proliferation” (priority 2001, published 2002)", "system": "human aortic SMC", "assay": "(3H)thymidine DNA synthesis / proliferation of sub-confluent SMC", "type": "cell-based", "conditions": "growth medium, 24 hours", "procedure": "Smooth muscle cells reach quiescence during serum starvation resulting in a blockade of DNA synthesis. […] The cells used in this Example and the other examples herein were human aortic SMC, grown in basal medium supplemented with growth factors, bFGF and epidermal growth factor (EGF) (Clonetics, San Diego, Calif.).\nThe addition of perlecan to serum-containing medium inhibited SMC growth by 70% (FIG. 2). Sub-confluent SMC (40-50% confluence) were incubated in serum-free medium or 10% serum-containing medium with or without purified perlecan for 24 h. DNA synthesis was then determined by incubating cells for another 5 h in medium containing (^3H)thymidine. TCA precipitable (DNA) thymidine counts were determined and expressed as percentage of DNA synthesis in cells grown in 10%FBS.\nPerlecan, induced in serum-free conditions, was required for the blockade of DNA synthesis observed in serum-free conditions. The anti-perlecan antibody of Example I was used to block perlecan. Sub-confluent levels of SMC (40-50% confluence) were incubated in serum-free medium containing 0, 5, 10 and 20 μg of mouse IgG or anti-perlecan IgG for 24 hours. DNA synthesis was then determined by incubating cells for another 5 hours in medium containing (^3H)thymidine. TCA precipitable (DNA) (^3H)thymidine counts were determined and expressed as percentage of DNA synthesis in cells grown in 10% FBS. […]", "note": "Some entries share one result that the patent states for a list of compounds. At least one structure is not confirmed: it was looked up by name or label, or the drawing left a doubt."}
{"compound": "Nc1nc2c(nc(Br)n2[C@@H]2O[C@@H]3COP(=O)(O)O[C@H]3[C@H]2O)c(=O)[nH]1", "note": "[8 bromo cyclic GMP]", "values": [{"measurement": "inhibition of SMC proliferation", "result": "50-60%"}]}
{"compound": "N[C@H]1C(O)O[C@H](CO)[C@@H](O)[C@@H]1O", "note": "(some centres unmarked) [glucosamine]", "values": [{"measurement": "inhibition of SMC proliferation", "result": "50-60%"}]}
